PubChem BioAssay AID1259308 | NCATS | 2017

Assay: 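Candidate targets for better recombinant protein yield in mammalian cells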 (primary screen)
Cells: human HEK293 embryonic kidney cells stably expressing firefly luciferase (HEK-CMV-Luc2-Hygro)
Reagents: single siRNA against human genes, 0.8 pmol siRNA per well
Timing: 72 h
Measured: 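Luciferase light (ONE-Glo) measured on one replicate plate set and viability (CellTiter-Glo) on the other, scaled to a negative control siRNA, with robust z-scores and luciferase per cell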
Direction: total luciferase, z-score and total luciferase, % of control: higher = more reporter protein produced
Hit rule: 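An siRNA counts as active if its total luciferase robust z-score exceeds 3; genes with two or more such siRNAs out of three were retested with fresh siRNAs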
Calls: active = raised luciferase; inactive = no rise
Here is one part, drawn at random, of about 59,000 reagents tested. Of all reagents, about 1,510 (2.6%) are marked active. 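Calls use total luciferase alone and ignore viability, so some active siRNAs may act by altering cell number.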 Reagents against one gene are numbered here. Not all columns of the deposit are shown.

The opening 3 records, to show the layout:
Gene,reagent no.,"total luciferase, z-score","total luciferase, % of control",Outcome
EZH1,1,-0.873,64.5,inactive
EZH1,2,0.0946,83.8,inactive
EZH1,3,-0.764,66.7,inactive

Results, repeating the preview:
Gene,reagent no.,"total luciferase, z-score","total luciferase, % of control",Outcome
EZH1,1,-0.873,64.5,inactive
EZH1,2,0.0946,83.8,inactive
EZH1,3,-0.764,66.7,inactive
ZNF586,1,-2.24,37.3,inactive
ZNF586,2,1.08,103,inactive
ZNF586,3,-1.21,57.8,inactive
PDZRN3,1,-0.799,66,inactive
PDZRN3,2,-1.15,59.1,inactive
PDZRN3,3,-0.765,66.7,inactive
LCN10,1,-1.64,49.3,inactive
LCN10,2,0.678,95.4,inactive
LCN10,3,1.11,104,inactive
OPRPN,1,3.26,147,active
OPRPN,2,-1.79,46.4,inactive
OPRPN,3,-1.08,60.5,inactive
PPP1R17,1,-0.33,75.3,inactive
PPP1R17,2,0.336,88.6,inactive
PPP1R17,3,-0.0885,80.1,inactive
JMJD1C,1,-0.479,72.4,inactive
JMJD1C,2,-0.0701,80.5,inactive
JMJD1C,3,0.0977,83.8,inactive
TSC2,1,1.52,112,inactive
TSC2,2,-0.251,76.9,inactive
TSC2,3,-1.3,56.1,inactive
ZBTB2,1,-2.35,35.2,inactive
ZBTB2,2,-1.6,50,inactive
ZBTB2,3,0.613,94.1,inactive
HEATR9,1,0.349,88.8,inactive
HEATR9,2,-0.474,72.5,inactive
HEATR9,3,0.19,85.7,inactive
KIN,1,-2.12,39.8,inactive
KIN,2,0.329,88.4,inactive
KIN,3,0.223,86.3,inactive
SPAG5,1,0.484,91.5,inactive
SPAG5,2,0.121,84.3,inactive
SPAG5,3,0.0553,83,inactive
MTPN,1,0.601,93.8,inactive
MTPN,2,-0.858,64.8,inactive
MTPN,3,3.37,149,active
NDUFAF2P1,1,1.1,104,inactive
NDUFAF2P1,2,-0.669,68.6,inactive
NDUFAF2P1,3,1.83,118,inactive
CEND1,1,-0.582,70.3,inactive
CEND1,2,0.106,84,inactive
CEND1,3,-0.929,63.4,inactive
KCNC1,1,-0.663,68.7,inactive
KCNC1,2,0.303,87.9,inactive
KCNC1,3,2.07,123,inactive
KRT84,1,0.604,93.9,inactive
KRT84,2,0.449,90.8,inactive
KRT84,3,1.39,110,inactive
TBC1D13,1,0.205,86,inactive
TBC1D13,2,-0.496,72,inactive
TBC1D13,3,2.31,128,inactive
RPL3,1,-1.55,51.1,inactive
RPL3,2,-2.62,29.7,inactive
RPL3,3,-2.67,28.8,inactive
